Measured values taken from patent US10668059B2, “Compositions and methods for the prevention and treatment of mast cell-induced vascular leakage” (Duke University, priority 2012, dated 2020).
“Also recorded” adds a separate entry of the source. For at least one compound, name, drawing or mass did not settle the structure.

Experiments:
DENV [1] = assay: Hematocrit analysis in DENV-infected IFN-α,β,γ-deficient (AG129) mice; format: in vivo; details: i.p. 2×10^6 pfu Eden2, cromolyn 3 mg/mouse/day i.p. from day 1, blood on day 3
EOMA cells = assay: Trans-well trans-endothelial resistance (TER) assay, EOMA monolayer exposed to supernatant of DENV-activated BMMCs; format: cell-based; details: TER at 24 hr
DENV [2] = assay: Evans Blue perfusion model of DENV-induced vascular leakage in WT mice; format: in vivo; details: i.p. 1×10^6 pfu DENV; for levels of tissue dye detection compared to baseline levels: 1 day after infection, versus uninfected baseline
Procedure: Uninfected mice, or mice infected with 1×10^6 pfu of DENV were injected with 100 μL of 5% Evans Blue dye 30 minutes prior to euthanasia. […] This contrast is particularly striking in the liver, a Dengue-target organ.
(§1) Serum was obtained from uninfected mice, DENV-infected and untreated mice, and mice that received MC-stabilizing or MC-product targeting treatments 24 hr after infection. Error bars represent the SEM of values obtained from individual animals n≥3.
As expected, Sash mice, which are MC-deficient model (see, e.g., Grimbaldestron, M. A. et al. (2005) Am. J. Pathol. 167:835-848), have undetectable serum levels of MCPT1 as baseline, as do uninfected congenic wild-type (WT) controls (FIG. 2A). To examine vascular leakage, mice infected with DENV were injected by tail vein with the tracking dye, Evans Blue, 30 minutes prior to euthanasia at a 24 hr time point.
Using this Evans Blue perfusion model, the extent of vascular leakage induced in 24 hr after i.p. instillation of 1×10^6 plaque-forming units (pfu) of DENV in WT and Sash mice was determined. […] Images of mouse livers after perfusion are presented below the corresponding graph bars.
Due to the contributions of MCs to many pathological inflammatory disorders, there are a number of available drugs that target MCs or products that they produce after activation. […] This hypothesis was tested by blocking DENV induced vascular leakage using a panel of such drugs. For the purposes of this study, two MC-stabilizing compounds that are clinically available were utilized: cromolyn and ketotifen, and two treatments that block MC products that are known to promote vascular leakage, an anti-TNF blocking antibody and montelukast, an inhibitor of leukotriene synthesis (see, e.g., Theoharides, T. C. et al. (1980) Science 207:80-82; McClean, S. P. et al. (1989) J. Allergy Clin Immunol. 83:738-741; and Busse, W. W. et al. (1999) Clin. Exp. Allergy 29 Suppl 2:110-115). […] Drugs were administered once, 30 minutes after i.p. instillation of 1×106 DENV and vascular leakage assessed 1 day after infection.

DENV [3] = assay: Hematocrit analysis in DENV-infected WT mice; format: in vivo; details: i.p. 1×10^6 pfu DENV, 1 day after infection, versus uninfected baseline
Procedure: as §1
To support the observation of increased dye leakage, hematocrit analysis was also performed using blood samples from mice. This test is one that is used in some cases to diagnose DENV pathology clinically by measuring the packed red blood cell volume from the blood and, therefore, it is a measure of plasma loss (see, e.g., Special Programme for Research and Training in Tropical Diseases, WHO Dengue: guidelines for diagnosis, treatment, prevention, and control. (2009) New ed. Geneva:TDR:World Health Organization). […] These findings cumulatively point to a pivotal role for MCs in promoting DENV-induced increased in vascular permeability.
Due to the contributions of MCs to many pathological inflammatory disorders, there are a number of available drugs that target MCs or products that they produce after activation. […] This hypothesis was tested by blocking DENV induced vascular leakage using a panel of such drugs. […] Drugs were administered once, 30 minutes after i.p. instillation of 1×106 DENV and vascular leakage assessed 1 day after infection.

DENV [4] = assay: Model of secondary DENV infection (anti-DENV antibodies perfused into mice prior to infection); format: in vivo; details: antibodies against DENV perfused into mice prior to infection

Compound | hematocrit values compared to DENV-infected, untreated mice (DENV [1]) | TER over supernatants from untreated DENV-exposed BMMCs (EOMA cells; cromolyn incubated with MCs during exposure to DENV (MOI 1), p<0.01) | levels of tissue dye detection compared to baseline levels (DENV [2]) | hematocrit values compared to baseline levels (DENV [3]) | vascular integrity (DENV [4]) | TER over untreated EOMA cells exposed to supernatant from DENV activated MCs (EOMA cells; drug added to trans-well insert just prior to MC supernatants, p<0.05) | Evans Blue dye leakage (vascular leakage) compared to untreated DENV-infected mice (DENV [2]; drug given once after infection, assessed 1 day after infection)
O=C(O)c1cc(=O)c2c(OCC(O)COc3cccc4oc(C(=O)O)cc(=O)c34)cccc2o1 [cromolyn] | reduced significantly; also recorded: significant decrease | increased | not statistically different from baseline levels | not statistically different from baseline levels | improved vascular integrity significantly | – | –
CC(C)(O)c1ccccc1CC[C@@H](SCC1(CC(=O)O)CC1)c1cccc(/C=C/c2ccc3ccc(Cl)cc3n2)c1 [monteleukast, montelukast] | – | – | not statistically different from baseline levels | not statistically different from baseline levels | – | significantly increased | striking, significant reductions
